# In publication PMC4441479:
# By UniProt entry, the sequences of proteins in these tests, tags left out.
# UniProt Q7Z2W4: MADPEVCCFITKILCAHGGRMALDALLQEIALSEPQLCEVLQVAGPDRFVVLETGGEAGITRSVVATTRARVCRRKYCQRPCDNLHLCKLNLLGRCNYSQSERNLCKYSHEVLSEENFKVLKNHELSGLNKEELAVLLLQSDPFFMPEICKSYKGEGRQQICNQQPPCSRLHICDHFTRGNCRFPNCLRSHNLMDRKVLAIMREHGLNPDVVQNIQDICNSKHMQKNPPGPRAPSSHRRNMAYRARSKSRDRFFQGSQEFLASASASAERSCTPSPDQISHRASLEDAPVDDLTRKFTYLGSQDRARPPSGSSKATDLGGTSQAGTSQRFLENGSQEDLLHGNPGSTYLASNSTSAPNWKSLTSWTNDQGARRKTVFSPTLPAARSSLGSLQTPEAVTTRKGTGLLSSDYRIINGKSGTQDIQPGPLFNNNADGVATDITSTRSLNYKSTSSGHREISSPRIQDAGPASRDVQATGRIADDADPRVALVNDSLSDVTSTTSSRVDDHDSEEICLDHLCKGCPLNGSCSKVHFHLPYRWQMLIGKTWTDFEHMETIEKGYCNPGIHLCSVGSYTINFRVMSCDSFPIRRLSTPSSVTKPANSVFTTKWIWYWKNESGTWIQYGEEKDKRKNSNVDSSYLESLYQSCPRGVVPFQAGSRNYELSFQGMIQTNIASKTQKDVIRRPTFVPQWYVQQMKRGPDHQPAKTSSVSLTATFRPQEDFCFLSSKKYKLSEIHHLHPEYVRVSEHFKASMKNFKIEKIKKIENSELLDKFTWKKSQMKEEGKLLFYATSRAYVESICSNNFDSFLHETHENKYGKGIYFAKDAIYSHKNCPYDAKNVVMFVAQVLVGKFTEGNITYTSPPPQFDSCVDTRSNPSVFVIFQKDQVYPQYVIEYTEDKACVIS
# These are yes or no findings as the source states them, for the method shown. Binding seen in cells or lysates may run through a third protein. A yes stands for co-enrichment or nearness to the bait. Other partners may have been found.
# Molecular target: ZAP-L-FL (FLAG-tagged ZAP-L) (human) (UniProt Q7Z2W4)
# Assay: affinity purification with mass spectrometry; ZAP-L-FL or empty vector transfected in 293T; IP with α-FLAG agarose from whole cell lysates (sonication) in the presence or absence of 30 μg/ml RNase; tandem MS; hits: 3 or more peptides, two replicate IPs, not in vector control
row,binding,Binder
1,binds,"Ribosomal RNA processing 1B (protein, UniProt Q14684-1 1-758) MAPAMQPAEIQFAQRLASSEKGIRDRAVKKLRQYISVKTQRETGGFSQEELLKIWKGLFYCMWVQDEPLLQEELANTIAQLVHAVNNSAAQHLFIQTFWQTMNREWKGIDRLRLDKYYMLIRLVLRQSFEVLKRNGWEESRIKVFLDVLMKEVLCPESQSPNGVRFHFIDIYLDELSKVGGKELLADQNLKFIDPFCKIAAKTKDHTLVQTIARGVFEAIVDQSPFVPEETMEEQKTKVGDGDLSAEEIPENEVSLRRAVSKKKTALGKNHSRKDGLSDERGRDDCGTFEDTGPLLQFDYKAVADRLLEMTSRKNTPHFNRKRLSKLIKKFQDLSEGSSISQLSFAEDISADEDDQILSQGKHKKKGNKLLEKTNLEKEKGSRVFCVEEEDSESSLQKRRRKKKKKHHLQPENPGPGGAAPSLEQNRGREPEASGLKALKARVAEPGAEATSSTGEESGSEHPPAVPMHNKRKRPRKKSPRAHREMLESAVLPPEDMSQSGPSGSHPQGPRGSPTGGAQLLKRKRKLGVVPVNGSGLSTPAWPPLQQEGPPTGPAEGANSHTTLPQRRRLQKKKAGPGSLELCGLPSQKTASLKKRKKMRVMSNLVEHNGVLESEAGQPQALGSSGTCSSLKKQKLRAESDFVKFDTPFLPKPLFFRRAKSSTATHPPGPAVQLNKTPSSSKKVTFGLNRNMTAEFKKTDKSILVSPTGPSRVAFDPEQKPLHGVLKTPTSSPASSPLVAKKPLTTTPRRRPRAMDFF"
2,binds,"Heterogeneous nuclear ribonucleoprotein A0 (protein, UniProt Q13151 1-305) MENSQLCKLFIGGLNVQTSESGLRGHFEAFGTLTDCVVVVNPQTKRSRCFGFVTYSNVEEADAAMAASPHAVDGNTVELKRAVSREDSARPGAHAKVKKLFVGGLKGDVAEGDLIEHFSQFGTVEKAEIIADKQSGKKRGFGFVYFQNHDAADKAAVVKFHPIQGHRVEVKKAVPKEDIYSGGGGGGSRSSRGGRGGRGRGGGRDQNGLSKGGGGGYNSYGGYGGGGGGGYNAYGGGGGGSSYGGSDYGNGFGGFGSYSQHQSSYGPMKSGGGGGGGGSSWGGRSNSGPYRGGYGGGGGYGGSSF"
3,binds,"MYB binding protein (P160) 1a (protein, UniProt Q9BQG0-1 1-1328) MESRDPAQPMSPGEATQSGARPADRYGLLKHSREFLDFFWDIAKPEQETRLAATEKLLEYLRGRPKGSEMKYALKRLITGLGVGRETARPCYSLALAQLLQSFEDLPLCSILQQIQEKYDLHQVKKAMLRPALFANLFGVLALFQSGRLVKDQEALMKSVKLLQALAQYQNHLQEQPRKALVDILSEVSKATLQEILPEVLKADLNIILSSPEQLELFLLAQQKVPSKLKKLVGSVNLFSDENVPRLVNVLKMAASSVKKDRKLPAIALDLLRLALKEDKFPRFWKEVVEQGLLKMQFWPASYLCFRLLGAALPLLTKEQLHLVMQGDVIRHYGEHVCTAKLPKQFKFAPEMDDYVGTFLEGCQDDPERQLAVLVAFSSVTNQGLPVTPTFWRVVRFLSPPALQGYVAWLRAMFLQPDLDSLVDFSTNNQKKAQDSSLHMPERAVFRLRKWIIFRLVSIVDSLHLEMEEALTEQVARFCLFHSFFVTKKPTSQIPETKHPFSFPLENQAREAVSSAFFSLLQTLSTQFKQAPGQTQGGQPWTYHLVQFADLLLNHSHNVTTVTPFTAQQRQAWDRMLQTLKELEAHSAEARAAAFQHLLLLVGIHLLKSPAESCDLLGDIQTCIRKSLGEKPRRSRTKTIDPQEPPWVEVLVEILLALLAQPSHLMRQVARSVFGHICSHLTPRALQLILDVLNPETSEDENDRVVVTDDSDERRLKGAEDKSEEGEDNRSSESEEESEGEESEEEERDGDVDQGFREQLMTVLQAGKALGGEDSENEEELGDEAMMALDQSLASLFAEQKLRIQARRDEKNKLQKEKALRRDFQIRVLDLVEVLVTKQPENALVLELLEPLLSIIRRSLRSSSSKQEQDLLHKTARIFTHHLCRARRYCHDLGERAGALHAQVERLVQQAGRQPDSPTALYHFNASLYLLRVLKGNTAEGCVHETQEKQKAGTDPSHMPTGPQAASCLDLNLVTRVYSTALSSFLTKRNSPLTVPMFLSLFSRHPVLCQSLLPILVQHITGPVRPRHQACLLLQKTLSMREVRSCFEDPEWKQLMGQVLAKVTENLRVLGEAQTKAQHQQALSSLELLNVLFRTCKHEKLTLDLTVLLGVLQGQQQSLQQGAHSTGSSRLHDLYWQAMKTLGVQRPKLEKKDAKEIPSATQSPISKKRKKKGFLPETKKRKKRKSEDGTPAEDGTPAATGGSQPPSMGRKKRNRTKAKVPAQANGTPTTKSPAPGAPTRSPSTPAKSPKLQKKNQKPSQVNGAPGSPTEPAGQKQHQKALPKKGVLGKSPLSALARKKARLSLVIRSPSLLQSGAKKKAQVRKAGKP"
4,binds,"FtsJ homolog 3 (E. coli) (protein, UniProt Q8IY81 1-847) MGKKGKVGKSRRDKFYHLAKETGYRSRSAFKLIQLNRRFQFLQKARALLDLCAAPGGWLQVAAKFMPVSSLIVGVDLVPIKPLPNVVTLQQDITTERCRQALRKELKTWKVDVVLNDGAPNVGASWVHDAYSQAHLTLMALRLACDFLARGGSFITKVFRSRDYQPLLWIFQQLFRRVQATKPQASRHESAEIFVVCQGFLAPDKVDSKFFDPKFAFKEVEVQAKTVTELVTKKKPKAEGYAEGDLTLYHRTSVTDFLRAANPVDFLSKASEIMVDDEELAQHPATTEDIRVCCQDIRVLGRKELRSLLNWRTKLRRYVAKKLKEQAKALDISLSSGEEDEGDEEDSTAGTTKQPSKEEEEEEEEEQLNQTLAEMKAQEVAELKRKKKKLLREQRKQRERVELKMDLPGVSIADEGETGMFSLSTIRGHQLLEEVTQGDMSAADTFLSDLPRDDIYVSDVEDDGDDTSLDSDLDPEELAGVRGHQGLRDQKRMRLTEVQDDKEEEEEENPLLVPLEEKAVLQEEQANLWFSKGSFAGIEDDADEALEISQAQLLFENRRKGRQQQQKQQLPQTPPSCLKTEIMSPLYQDEAPKGTEASSGTEAATGLEGEEKDGISDSDSSTSSEEEESWEPLRGKKRSRGPKSDDDGFEIVPIEDPAKHRILDPEGLALGAVIASSKKAKRDLIDNSFNRYTFNEDEGELPEWFVQEEKQHRIRQLPVGKKEVEHYRKRWREINARPIKKVAEAKARKKRRMLKRLEQTRKKAEAVVNTVDISEREKVAQLRSLYKKAGLGKEKRHVTYVVAKKGVGRKVRRPAGVRGHFKVVDSRMKKDQRAQQRKEQKKKHKRK"
5,binds,"Reticulocalbin 2, EF-hand calcium binding domain (protein, UniProt Q14257-1 23-317) GKAEELHYPLGERRSDYDREALLGVQEDVDEYVKLGHEEQQKRLQAIIKKIDLDSDGFLTESELSSWIQMSFKHYAMQEAKQQFVEYDKNSDDTVTWDEYNIQMYDRVIDFDENTALDDAEEESFRKLHLKDKKRFEKANQDSGPGLSLEEFIAFEHPEEVDYMTEFVIQEALEEHDKNGDGFVSLEEFLGDYRWDPTANEDPEWILVEKDRFVNDYDKDNDGRLDPQELLPWVVPNNQGIAQEEALHLIDEMDLNGDKKLSEEEILENPDLFLTSEATDYGRQLHDDYFYHDEL"

# The remaining lines, values behind:
row,Binder,binding
1,"Cold shock domain containing E1, RNA-binding (protein, UniProt O75534-3 1-813) MENVFTVSSDPHPSPAAPPSLSLPLSSSSTSSGTKKQKRTPTYQRSMSFDPNLLHNNGHNGYPNGTSAALRETGVIEKLLTSYGFIQCSERQARLFFHCSQYNGNLQDLKVGDDVEFEVSSDRRTGKPIAVKLVKIKQEILPEERMNGQEVFYLTYTPEDVEGNVQLETGDKINFVIDNNKHTGAVSARNIMLLKKKQARCQGVVCAMKEAFGFIERGDVVKEIFFHYSEFKGDLETLQPGDDVEFTIKDRNGKEVATDVRLLPQGTVIFEDISIEHFEGTVTKVIPKVPSKNQNDPLPGRIKVDFVIPKELPFGDKDTKSKVTLLEGDHVRFNISTDRRDKLERATNIEVLSNTFQFTNEAREMGVIAAMRDGFGFIKCVDRDVRMFFHFSEILDGNQLHIADEVEFTVVPDMLSAQRNHAIRIKKLPKGTVSFHSHSDHRFLGTVEKEATFSNPKTTSPNKGKEKEAEDGIIAYDDCGVKLTIAFQAKDVEGSTSPQIGDKVEFSISDKQRPGQQVATCVRLLGRNSNSKRLLGYVATLKDNFGFIETANHDKEIFFHYSEFSGDVDSLELGDMVEYSLSKGKGNKVSAEKVNKTHSVNGITEEADPTIYSGKVIRPLRSVDPTQTEYQGMIEIVEEGDMKGEVYPFGIVGMANKGDCLQKGESVKFQLCVLGQNAQTMAYNITPLRRATVECVKDQFGFINYEVGDSKKLFFHVKEVQDGIELQAGDEVEFSVILNQRTGKCSACNVWRVCEGPKAVAAPRPDRLVNRLKNITLDDASAPRLMVLRQPRGPDNSMGFGAERKIRQAGVID",binds
2,"Cell cycle associated protein 1 (protein, UniProt Q14444-1 1-709) MPSATSHSGSGSKSSGPPPPSGSSGSEAAAGAGAAAPASQHPATGTGAVQTEAMKQILGVIDKKLRNLEKKKGKLDDYQERMNKGERLNQDQLDAVSKYQEVTNNLEFAKELQRSFMALSQDIQKTIKKTARREQLMREEAEQKRLKTVLELQYVLDKLGDDEVRTDLKQGLNGVPILSEEELSLLDEFYKLVDPERDMSLRLNEQYEHASIHLWDLLEGKEKPVCGTTYKVLKEIVERVFQSNYFDSTHNHQNGLCEEEEAASAPAVEDQVPEAEPEPAEEYTEQSEVESTEYVNRQFMAETQFTSGEKEQVDEWTVETVEVVNSLQQQPQAASPSVPEPHSLTPVAQADPLVRRQRVQDLMAQMQGPYNFIQDSMLDFENQTLDPAIVSAQPMNPTQNMDMPQLVCPPVHSESRLAQPNQVPVQPEATQVPLVSSTSEGYTASQPLYQPSHATEQRPQKEPIDQIQATISLNTDQTTASSSLPAASQPQVFQAGTSKPLHSSGINVNAAPFQSMQTVFNMNAPVPPVNEPETLKQQNQYQASYNQSFSSQPHQVEQTELQQEQLQTVVGTYHGSPDQSHQVTGNHQQPPQQNTGFPRSNQPYYNSRGVSRGGSRGARGLMNGYRGPANGFRGGYDGYRPSFSNTPNSGYTQSQFSAPRDYSGYQRDGYQQNFKRGSGQSGPRGAPRGRGGPPRPNRGMPQMNTQQVN",binds
3,"DDB1- and CUL4-associated factor 7 (protein, UniProt P61962-1 1-342) MSLHGKRKEIYKYEAPWTVYAMNWSVRPDKRFRLALGSFVEEYNNKVQLVGLDEESSEFICRNTFDHPYPTTKLMWIPDTKGVYPDLLATSGDYLRVWRVGETETRLECLLNNNKNSDFCAPLTSFDWNEVDPYLLGTSSIDTTCTIWGLETGQVLGRVNLVSGHVKTQLIAHDKEVYDIAFSRAGGGRDMFASVGADGSVRMFDLRHLEHSTIIYEDPQHHPLLRLCWNKQDPNYLATMAMDGMEVVILDVRVPCTPVARLNNHRACVNGIAWAPHSSCHICTAADDHQALIWDIQQMPRAIEDPILAYTAEGEINNVQWASTQPDWIAICYNNCLEILRV",binds
4,"Coiled-coil domain containing 86 (protein, UniProt Q9H6F5-1 1-360) MDTPLRRSRRLGGLRPESPESLTSVSRTRRALVEFESNPEETREPGSPPSVQRAGLGSPERPPKTSPGSPRLQQGAGLESPQGQPEPGAASPQRQQDLHLESPQRQPEYSPESPRCQPKPSEEAPKCSQDQGVLASELAQNKEELTPGAPQHQLPPVPGSPEPYPGQQAPGPEPSQPLLELTPRAPGSPRGQHEPSKPPPAGETVTGGFGAKKRKGSSSQAPASKKLNKEELPVIPKGKPKSGRVWKDRSKKRFSQMLQDKPLRTSWQRKMKERQERKLAKDFARHLEEEKERRRQEKKQRRAENLKRRLENERKAEVVQVIRNPAKLKRAKKKQLRSIEKRDTLALLQKQPPQQPAAKI",binds
